Library screen at single concentrations

Mtb cholesterol medium: 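Growth of Mycobacterium tuberculosis over 4 days (cholesterol / DPPC medium with tyloxapol); the read-out is not stated. Compounds at 50 µM. The record gives no direction; compounds that gave an IC50 in retests scored well above the rest, so higher reads as more growth inhibition. Size under these conditions: about 69,000 compounds, about 370 of them at 50% or above in at least one test.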
Mtb glucose medium: 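Growth of Mycobacterium tuberculosis over 3 days (7H9 medium with glucose and tyloxapol); the read-out is not stated. Tested at 50 µM. Direction is inferred from retests: higher values go with more growth inhibition. About 69,000 compounds were tested under these conditions; 1.1% (about 760) showed 50% or more at least once.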

The filed quantity is “Percent Effect” (%). How 0% and 100% were set is not recorded. Most values in the screen are low, and negative values occur. This is an unselected part of the compounds tested. Two or more numbers in one place are separate tests of the same structure; such repeats can differ widely.

compound | Mtb cholesterol medium | Mtb glucose medium
Cc1cc(=O)c(C(=O)Nc2cccc(CCN3CCCC3)c2)c[nH]1 | 5.782 | -1.833 & 16.75
CC(Cn1cncn1)NC(=O)Nc1ccc(COC2CCCC2)cc1 (configuration not stated) | -15.53 | -5.732
COCC(c1cccc(C(F)(F)F)c1)N(C)C(=O)c1cc(C)n[nH]1 (configuration not stated) | -18.81 | -8.669
O=C(N1CCc2ccccc2CC1)C1(O)Cc2ccccc2C1 | -12.24 | 14.78
CN(C)CCN(C)C(=O)NC1CCC(Oc2ccccc2C#N)CC1 (configuration not stated) | -8.215 | 3.625
O=C(NCc1ccccc1CN1CCCCC1)Nc1nncs1 | -16.7 | 7.993
Fc1ccc(NCc2ncc[nH]2)cc1Br | 2.256 & 6.913 | 3.755 & 5.62
COc1ccc(OC2CCN(C(=O)C3CCCN(C)C3)CC2)cc1 (configuration not stated) | -31.19 | -33.55 & -4.452
CC(C)n1c(=O)c2ccccc2n(CCN2CCCCC2)c1=O | -12.12 | -19.24
Cc1cc(NC(=O)NC(C)CO)ccc1OCC(F)(F)F (configuration not stated) | 4.908 | -13.68
CCOc1ccccc1CSCCn1nc2ccccn2c1=O | 42.32 | 42.68
CNc1nccnc1C1CN(C(=O)c2cc[nH]n2)CCO1 (configuration not stated) | 4.117 | 4.466
Fc1cc(Cl)cnc1N1CCCC(c2nccn2Cc2ccccn2)C1 (configuration not stated) | -32.57 | 7.913
Cc1nn(S(=O)(=O)c2ccc(Cl)cc2)c(C)c1C | -29.13 | -31.87
COC(=O)CNC(=O)c1ccn(-c2ccc(Cl)c(Cl)c2)n1 | 31.48 | 39.22
O=C1CCCN1c1cccc(CNCc2nc(-c3ccco3)no2)c1 | -8.344 | -1.05
CCCc1cc(CNC2CCN(c3nc4ccccc4s3)CC2)on1 | 14.9 | 34.08
O=C(O)Cn1nc(C2CC2)c2c(-c3ccc(F)cc3)ccnc21 | 11.76 | 14.93
COc1ccc(CN(Cc2cccnc2)CC2CCCO2)c(OC)c1.O=C(O)CC(O)(CC(=O)O)C(=O)O (configuration not stated) | -11.61 | 16.45
Cc1nn(C)c(C)c1OCC(=O)NCC(O)c1ccccc1F (configuration not stated) | -1.567 | -0.09666
CN(C(=O)C1CCCCC1)[C@@H]1CCC[C@@H](N2CCOCC2)[C@@H]1O | 12.53 | 5.835
CN(C)[C@@H]1CCN(C(=O)NC2CCCC2)[C@H]1Cc1ccncc1.O=C(O)C(F)(F)F.O=C(O)C(F)(F)F | -19.64 | -7.654
CNC(=O)CN1CCC(NC2CSCCc3ccccc32)CC1 (configuration not stated) | 16.98 | -0.9026
COCC1CC2(CCN(Cc3cnn(C)c3)CC2)CN1c1ncccn1.O=C(O)C(F)(F)F.O=C(O)C(F)(F)F (configuration not stated) | -1.036 | 14.84
COCCc1noc(CN2CCCC2c2noc(C)n2)n1 (configuration not stated) | -35.39 | -19.69
NC(=O)Cn1c(CO)cnc1SCC(=O)NCc1ccccc1 | -20.66 | -1.439 & -8.387
CN(Cc1cc(C2CC2)[nH]n1)Cc1cc2ccc(F)cc2[nH]c1=O | -0.3834 & 8.329 | -0.4568
CSCCCN1CCC(c2nnc(Cn3ccnc3)n2C2CC2)CC1 | -21.49 & -12.12 | -10.69
COC(=O)CCCn1ccnc1-c1ccc(OC)c(F)c1F | -17.46 | -18.79
O=S(=O)(Cc1ccccc1Cl)NC(CO)c1ccco1 (configuration not stated) | -30.62 | -29.7
Cc1nc(C)n(CC2CCCN2Cc2nc3ccccc3o2)n1 (configuration not stated) | -0.9419 | 3.884
Cc1cccc(CS(=O)(=O)Cc2ccn(C)c(=O)c2)c1 | -6.607 | -4.44 & -10.34
Cc1csc(CN2C[C@H](NC(=O)C3CCOCC3)[C@@H](C(C)C)C2)n1 | -2.086 | 12.3
CN(C)[C@H]1CCCCN(C(=O)c2cccc(-c3cccc(F)c3)c2)C1 | 33.63 | 16.45
CNC(=O)CN1CCC(OCC2CCCO2)CC1 (configuration not stated) | 0.07327 | -12.22
Cc1[nH]c2ccccc2c1-c1ccnc(NCCN2CCOCC2)n1 | -28.97 | -6.772
O=C(O)CCc1cc2n(n1)CCCN(C(=O)c1ccc(F)cc1F)C2 | -4.797 & 0.8623 | -2.721
CCN(CC)CCSc1nnc(N2CCN(c3ccccc3)CC2)s1 | -7.792 | -16.45
O=C(CCNS(=O)(=O)c1ccccc1)NCc1ccoc1 | 8.568 | 22.05
O=C(O)c1ccccc1-n1cc(CN2CCC(c3cc[nH]n3)C2)cn1 (configuration not stated) | 3.976 & -2.849 | -16.63
O=C(CC1CC1)N1CCC2(COCc3cnc(-c4cccnc4)nc32)C1 (configuration not stated) | -10.52 | 13.29
COc1ccc(NC(=O)c2ccc(-n3ncc(C#N)c3N)cc2)cn1 | -11.71 | -14.5
CCC(NC(=O)c1cc(CC(C)C)nn1C)c1cc(C)ccn1 (configuration not stated) | 1.633 | 25.6 & 10.91
O=C(c1ccoc1)N1CCO[C@]2(CCC[C@@H]2COCc2ccncc2)C1 | -37.68 | -3.704 & 11.99
COc1ncccc1C(=O)N1CCC(Nc2ccc(C)nn2)CC1 | -2.775 | -28.57
CC(C)CC(CO)NC(=O)NCc1csc(N(C)C)n1 (configuration not stated) | 12.4 | 3.268 & 20.56
CNc1cccc(C2CCN(C(C)=O)CC2)n1 | 5.483 | 12.98
CCN1CCOCC2(CCCN(C(=O)c3conc3C)C2)C1.O=C(O)C(F)(F)F (configuration not stated) | -16.69 & -8.292 | 10.15
COC(=O)C(NC(=O)C1CC1)c1cc(F)ccc1F (configuration not stated) | -10.96 | 26.04
CCN1CCN(C)C(=O)C12CCN(Cc1cccc(C)c1)CC2.O=C(O)C(F)(F)F | -16.05 | -21.86
COCC(=O)NS(=O)(=O)c1ccc(F)c(F)c1 | 1.569 | -4.609 & 3.489
COCCN1CCCn2c(nc(CNC(=O)COC)cc2=O)C1.O=C(O)C(F)(F)F | 8.139 | -17.99
CC(=O)NCCNC(=O)CNC1CCCN(c2ccc(C)nn2)C1 (configuration not stated) | -41.75 | -11.33
COc1cc(C)cc(C(C(=O)O)N(C)Cc2cnn(C)c2)c1OC (configuration not stated) | -0.6138 | -36.5
CCOCCCC(=O)Nc1cccnc1-n1ccnc1C | 0.006832 | -10.94 & -19.56
O=C(O)C(F)(F)F.O=C(O)C(F)(F)F.O=C(O)C(F)(F)F.[H][C@@]12CN(Cc3ccncc3)C[C@]1([H])OCCN2CC1CCCO1 (some centres not stated) | -15.96 | 10.35
CC(C)Oc1cc(N2CC[C@@H](N3CCOCC3)[C@H](O)C2)nc(N)n1 | -10.37 | -13.98
CC(C)c1cc(NC(=O)c2ccc(NC3CC3)nc2)[nH]n1 | 2.396 | 22.36
COc1cccc(CCCNC(=O)N2CCC(O)(C(F)(F)F)C2)c1 (configuration not stated) | 2.95 | 1.443 & 23.52
Cc1cc(NC(=O)c2ccc(F)cc2Br)n(C)n1 | 11.63 | 2.843
COc1c(C)cnc(CN(C)C(=O)c2cccc(NC(N)=O)c2)c1C | -26.43 | 18.66
CCn1cc(S(=O)(=O)NCC(OC)c2ccccc2)cn1 (configuration not stated) | 17.62 | 29.73
[H][C@@]12CCN(Cc3scnc3C)C[C@]1(C(=O)NCC1CC1)CCO2 | -78.95 & -8.385 | -6.952 & -5.08
[H][C@]12CCC[C@@]1(COCc1ccncc1)CN(C1CCOCC1)C2 | 4.041 | 8.934

The first 4 entries again:

* Cc1cc(=O)c(C(=O)Nc2cccc(CCN3CCCC3)c2)c[nH]1 : Mtb cholesterol medium: 5.782%; Mtb glucose medium: -1.833% & 16.75%
* CC(Cn1cncn1)NC(=O)Nc1ccc(COC2CCCC2)cc1 (configuration not stated) : Mtb cholesterol medium: -15.53%; Mtb glucose medium: -5.732%
* COCC(c1cccc(C(F)(F)F)c1)N(C)C(=O)c1cc(C)n[nH]1 (configuration not stated) : Mtb cholesterol medium: -18.81%; Mtb glucose medium: -8.669%
* O=C(N1CCc2ccccc2CC1)C1(O)Cc2ccccc2C1 : Mtb cholesterol medium: -12.24%; Mtb glucose medium: 14.78%

From ChEMBL document CHEMBL3988442, “University of Dundee, Small-Polar-MMV Screening Library” (2021).